{"source": "PubChem BioAssay AID652243 – Drosophila RNAi Screening Center | 2013", "screen": "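Fly genes required for human androgen receptor driven transcription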 (primary screen)", "cell system": "Drosophila S2R+ cells", "reagent": "long dsRNA against Drosophila genes", "time to read-out": "72 h (48 h, then 24 h hormone)", "challenge": "synthetic androgen R1881 at 10 nM for 24 h", "read-out": "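Per-well raw luminescence of the androgen-driven firefly reporter and of the Renilla control, two replicates each, without normalisation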", "direction": "firefly reporter light: higher = more light from androgen-responsive reporter; Renilla control light: higher = more constitutive control signal (cell number, transfection)", "rule for the call": "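Across duplicate plates, a knock-down whose log firefly/Renilla ratio shifted a set fold down or up from the GFP/LacZ control mean was a hit; the downward cut appears as both 1.5 and 3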", "meaning of the calls": "active = hit: reporter lowered or raised; inactive = no hit", "note": "The deposit covers about 24,000 reagents; shown is a random part of those with a known target gene and a result. In the full data, 246 (1%) were called active. 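Plates not normalised; calls are printed but the firefly/Renilla ratio behind them is not deposited; fold cut for lowering reported inconsistently.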 Raw values vary from plate to plate and are shown uncorrected. Names joined by + are all predicted targets of the reagent. Not stated in the record: the amount of reagent."}
{"predicted target": "CG9346", "DRSC id": "DRSC04542", "firefly reporter light, replicate 1": 1.09e6, "firefly reporter light, replicate 2": 1.11e6, "Renilla control light, replicate 1": 2.37e6, "Renilla control light, replicate 2": 2.42e6, "activity call": "inactive"}
{"predicted target": "GlcAT-P", "DRSC id": "DRSC10603", "firefly reporter light, replicate 1": 8.57e5, "firefly reporter light, replicate 2": 7.34e5, "Renilla control light, replicate 1": 1.91e6, "Renilla control light, replicate 2": 2.40e6, "activity call": "inactive"}
{"predicted target": "GlcAT-P", "DRSC id": "DRSC10604", "firefly reporter light, replicate 1": 3.91e5, "firefly reporter light, replicate 2": 4.54e5, "Renilla control light, replicate 1": 1.91e6, "Renilla control light, replicate 2": 1.62e6, "activity call": "inactive"}
{"predicted target": "eEFSec", "DRSC id": "DRSC04571", "firefly reporter light, replicate 1": 2.10e5, "firefly reporter light, replicate 2": 2.06e5, "Renilla control light, replicate 1": 1.68e6, "Renilla control light, replicate 2": 1.28e6, "activity call": "inactive"}
{"predicted target": "shu", "DRSC id": "DRSC04484", "firefly reporter light, replicate 1": 7.59e5, "firefly reporter light, replicate 2": 7.26e5, "Renilla control light, replicate 1": 1.74e6, "Renilla control light, replicate 2": 1.80e6, "activity call": "inactive"}
{"predicted target": "shu", "DRSC id": "DRSC27390", "firefly reporter light, replicate 1": 6.25e5, "firefly reporter light, replicate 2": 6.92e5, "Renilla control light, replicate 1": 7.99e5, "Renilla control light, replicate 2": 8.76e5, "activity call": "inactive"}
{"predicted target": "CG9686", "DRSC id": "DRSC18439", "firefly reporter light, replicate 1": 60877, "firefly reporter light, replicate 2": 83093, "Renilla control light, replicate 1": 1.69e6, "Renilla control light, replicate 2": 1.20e6, "activity call": "inactive"}
{"predicted target": "CG9686", "DRSC id": "DRSC28497", "firefly reporter light, replicate 1": 2.68e5, "firefly reporter light, replicate 2": 5.61e5, "Renilla control light, replicate 1": 1.15e6, "Renilla control light, replicate 2": 1.36e6, "activity call": "inactive"}
{"predicted target": "CG13078", "DRSC id": "DRSC02182", "firefly reporter light, replicate 1": 1.32e5, "firefly reporter light, replicate 2": 1.08e5, "Renilla control light, replicate 1": 1.46e6, "Renilla control light, replicate 2": 9.07e5, "activity call": "inactive"}
{"predicted target": "Ced-12", "DRSC id": "DRSC02840", "firefly reporter light, replicate 1": 1.68e5, "firefly reporter light, replicate 2": 1.85e5, "Renilla control light, replicate 1": 1.04e6, "Renilla control light, replicate 2": 1.33e6, "activity call": "inactive"}
{"predicted target": "Ced-12", "DRSC id": "DRSC24035", "firefly reporter light, replicate 1": 9.32e5, "firefly reporter light, replicate 2": 1.11e6, "Renilla control light, replicate 1": 8.97e5, "Renilla control light, replicate 2": 1.02e6, "activity call": "inactive"}
{"predicted target": "CG31872", "DRSC id": "DRSC02568", "firefly reporter light, replicate 1": 1.08e5, "firefly reporter light, replicate 2": 2.18e5, "Renilla control light, replicate 1": 6.46e5, "Renilla control light, replicate 2": 8.52e5, "activity call": "inactive"}
{"predicted target": "CG31872", "DRSC id": "DRSC02572", "firefly reporter light, replicate 1": 3.89e5, "firefly reporter light, replicate 2": 4.88e5, "Renilla control light, replicate 1": 1.94e6, "Renilla control light, replicate 2": 2.19e6, "activity call": "inactive"}

2 entries from above, showing only “firefly reporter light, replicate 1”.
shu [DRSC04484]	7.59e5
shu [DRSC27390]	6.25e5

The list goes on.
{"predicted target": "Rad23", "DRSC id": "DRSC17167", "firefly reporter light, replicate 1": 1.10e5, "firefly reporter light, replicate 2": 74741, "Renilla control light, replicate 1": 5.63e5, "Renilla control light, replicate 2": 6.89e5, "activity call": "inactive"}
{"predicted target": "Gr22e", "DRSC id": "DRSC20912", "firefly reporter light, replicate 1": 7.86e5, "firefly reporter light, replicate 2": 6.42e5, "Renilla control light, replicate 1": 1.41e6, "Renilla control light, replicate 2": 1.13e6, "activity call": "inactive"}
{"predicted target": "Ist1", "DRSC id": "DRSC09697", "firefly reporter light, replicate 1": 1.08e6, "firefly reporter light, replicate 2": 9.57e5, "Renilla control light, replicate 1": 8.05e5, "Renilla control light, replicate 2": 1.09e6, "activity call": "inactive"}
{"predicted target": "Ist1", "DRSC id": "DRSC25231", "firefly reporter light, replicate 1": 9.36e5, "firefly reporter light, replicate 2": 9.27e5, "Renilla control light, replicate 1": 8.41e5, "Renilla control light, replicate 2": 7.45e5, "activity call": "inactive"}
{"predicted target": "Dlip1", "DRSC id": "DRSC18460", "firefly reporter light, replicate 1": 2.50e5, "firefly reporter light, replicate 2": 3.68e5, "Renilla control light, replicate 1": 1.82e6, "Renilla control light, replicate 2": 2.51e6, "activity call": "inactive"}
{"predicted target": "nAChRbeta1", "DRSC id": "DRSC08097", "firefly reporter light, replicate 1": 1.51e5, "firefly reporter light, replicate 2": 1.39e5, "Renilla control light, replicate 1": 2.39e5, "Renilla control light, replicate 2": 3.24e5, "activity call": "inactive"}
{"predicted target": "nAChRbeta1", "DRSC id": "DRSC08728", "firefly reporter light, replicate 1": 1.10e6, "firefly reporter light, replicate 2": 8.51e5, "Renilla control light, replicate 1": 2.14e6, "Renilla control light, replicate 2": 1.94e6, "activity call": "inactive"}
{"predicted target": "Shawn + Tyler", "DRSC id": "DRSC19564", "firefly reporter light, replicate 1": 54880, "firefly reporter light, replicate 2": 79259, "Renilla control light, replicate 1": 5.00e5, "Renilla control light, replicate 2": 5.29e5, "activity call": "inactive"}
{"predicted target": "Shawn + Tyler", "DRSC id": "DRSC19565", "firefly reporter light, replicate 1": 68971, "firefly reporter light, replicate 2": 66308, "Renilla control light, replicate 1": 2.14e5, "Renilla control light, replicate 2": 2.05e5, "activity call": "inactive"}
